Data on 38 compounds can be found in PubChem BioAssay AID493014 (National Center for Advancing Translational Sciences (NCATS), 2011).

This experiment can be described thus: qHTS Assay to Find Inhibitors of Chronic Active B-Cell Receptor Signaling. The settings on record: ABC-DLBCL IkBa-CBG/CBR reporter, luminescence ratio (green luciferase fused to IkBa over red control in TMD8 lymphoma cells), 4 h. In a few lines:
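Doxycycline induced both beetle luciferases in TMD8 lymphoma cells; IKK-driven degradation limits the IkappaBalpha-fused green signal, while red luminescence normalises for cell number and nonspecific effects. Compounds tested up to 46 uM, 4 hrs.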

The mark [1] stands for this setting: measured here: CBR red luminescence, cell number.
Setting [2] is: measured here: IkBa-CBG green luminescence.

This is one part of the list. Shown are side measurements of this screen, not its main read-out; they come without a call. The list favours compounds with an active or inconclusive main result. Words in brackets tell the shape of the fitted curve; partial curves, single points and poor fits give uncertain potencies.

As for `CCOc1ccccc1C(=O)Nc1ccc2nc3n(c(=O)c2c1)CCCCC3`, the half-maximal activity concentration (AC50) under setting [1] was 2.24 µM [falling, full curve, poor fit]. With `O=C(NCc1ccco1)c1cc(-c2ccccc2)nn1CC1CC(c2cccc([N+](=O)[O-])c2)=NO1` (stereo unspecified), under setting [1], the AC50 was 9.2 µM [rising, partial curve]. On the same count and under the same terms, with `Cc1sc(NC(=O)Cn2cnnn2)nc1-c1ccc(Cl)cc1` the figure was 22.4 µM [falling, single point]; with `COc1ccccc1-c1c(C)nn2c(C)cc(C)nc12`, 8.2 µM [rising, partial curve]; with `CC(C)OC(=O)c1cccc(C(=O)OCc2ccco2)n1`, 10 µM [falling, partial curve, poor fit]. Still for that read-out and setting: under `O=C(NCc1ccncc1)C1CCCCC1` stands 6.51 µM [falling, single point]; under `CN(C)CCNC(=O)C(c1ccccc1)c1ccccc1`, 35.5 µM [rising, single point]. In the case of `CCCn1c2ccccc2c2cc(C(=O)O)ccc21`, the AC50 was 10 µM [falling, partial curve] under setting [1] and 5.62 µM [rising, partial curve] under setting [2]. Consider `Cc1ccccc1NC(=O)CC(C)S(=O)(=O)c1ccc2c(c1)NC(=O)CO2` (stereo unspecified), for which the AC50 under setting [1] is 15.8 µM [falling, partial curve, poor fit].

`COc1ccc(Cc2nnc(N/N=C/c3ccc(O)cc3O)[nH]c2=O)cc1OC`: the half-maximal activity concentration (AC50) under setting [1] was 29.1 µM [falling, single point]. Still for that read-out and setting: with `O=C(CC1(O)C(=O)Nc2ccccc21)c1cccnc1` (stereo unspecified) the figure was 0.116 µM [falling, full curve, poor fit]; with `O=C(/C=C/c1ccc(OC(F)F)cc1)Nc1cccc(S(=O)(=O)NC2=NCCCCC2)c1`, 7.94 µM [falling, partial curve, poor fit]; with `NC(=NC(=O)c1cccc(C(F)(F)F)c1)c1ccc(C(F)(F)F)cn1`, 10 µM [rising, partial curve]. On the same count and under the same terms, with `COc1ccc(SCCN2CC[C@@H](C(C)(C)C)CCC2=O)cc1` the figure was 32.6 µM [falling, single point]; with `CCCCN1CC(O)=C(c2nc(-c3ccc(Br)cc3)cs2)C1=N`, 1.41 µM [rising, full curve]; with `Cc1cc2[nH]ncc2cc1NC(N)=S`, 11.2 µM [falling, partial curve, poor fit].

With `Cc1nn(Cc2ccc(F)cc2)c(C)c1NC(=O)c1cnn2c1NC(c1cccs1)CC2C(F)(F)F` (stereo unspecified), the AC50 under setting [1] was 14.6 µM [falling, single point]. As for `O=C(COC(=O)c1ccc(F)c(S(=O)(=O)N2CCOCC2)c1)NCc1ccc(F)cc1`, the AC50 under setting [1] was 3.26 µM [rising, full curve]. Turning to `COc1ccc(NC(=O)CSC2=C(C#N)C(c3ccco3)C3=C(CCCC3=O)N2)c(OC)c1` (stereo unspecified), under setting [1], the AC50 is 6.51 µM [falling, partial curve, poor fit].

`CC(C)c1nc2sc3c(SCC(N)=O)ncnc3c2c2c1CCC2`: the AC50 under setting [1] was 31.6 µM [rising, single point].

As for `CCOC(=O)c1ccc(NC(=S)N2CCN(CCN=CC3=C(O)CC(c4ccccc4)CC3=O)CC2)cc1` (stereo unspecified), under setting [1], the AC50 is 15.8 µM [falling, single point]. For `CN=C1SC(CC(=O)Nc2ccccc2F)C(=O)N1/N=C/c1ccc(O)c(OC)c1` (stereo unspecified), the AC50 under setting [1] was 3.55 µM [falling, single point]. The same measure, in the same setting: under `COc1cc(NC(=O)[C@@H](NC(=O)N2CCn3c2nc2ccccc23)C(C)C)cc(OC)c1` stands 15.8 µM [falling, single point]. Regarding `CC(=O)/C(=N\Nc1ccc(Cl)cc1Cl)Sc1cccc2cccnc12`, the AC50 by setting is: under setting [1], 25.9 µM [falling, single point]; under setting [2], 6.51 µM [falling, single point].

For `Cc1[nH]n(-c2ccccc2)c(=O)c1C=NCc1ccco1`, the half-maximal activity concentration (AC50) under setting [1] was 3.98 µM [rising, single point].

Take `CCCc1cc(=O)oc2cc(OCC(=O)NCCCN3CCOCC3)c(Cl)cc12`: the AC50 under setting [1] is 7.94 µM [rising, partial curve, poor fit]. As for `O=C(NCCc1ccccc1)C1CCCN(S(=O)(=O)c2cccc3nsnc23)C1` (stereo unspecified), the AC50 under setting [1] was 25.9 µM [rising, single point]. Same read-out and setting: with `C#CCOCCOCCOCCNc1nc(N2CCN(C(=O)[C@H]([C@@H](C)O)n3cc(CCCCN)nn3)CC2)nc(N2CCN(C(=O)[C@H](CCCCN)n3cc(CC(C)O)nn3)CC2)n1` (stereo partly specified) the figure was 0.517 µM [rising, partial curve, poor fit]; with `CC(/C=N/n1c(COc2ccccc2)n[nH]c1=S)=C\c1ccccc1`, 35.5 µM [rising, single point].

Turning to `CCCS(=O)(=O)N1CCC(C(=O)NCCc2ccccc2)CC1`, the half-maximal activity concentration (AC50) under setting [1] was 20.6 µM [rising, partial curve, poor fit]. Same read-out and setting: with `COc1ccc(C(=O)Nc2cc([N+](=O)[O-])ccc2N2CCCC2)cc1` the figure was 11.2 µM [rising, partial curve, poor fit]; with `Cc1cc2cc(C)c3nnc(SCC(=O)N4CCc5ccccc54)n3c2cc1C`, 5.62 µM [rising, single point]. Same read-out and setting: under `COc1ccc(CNC(=O)C[C@H]2C[C@H](C(=O)N(C(C)C)C(C)C)[C@@]3(C)c4[nH]c5ccc(Cl)cc5c4CCN3C2=O)cc1OC` stands 29.1 µM [falling, single point]. Turning to `CCOc1ccc(/C=C2\SC(=S)N(CCC(=O)O)C2=O)cc1`, the AC50 by setting is: under setting [1], 0.0891 µM [falling, full curve, poor fit]; under setting [2], 8.91 µM [rising, partial curve, poor fit]. On to `Cc1cc(NS(=O)(=O)c2ccc(NC(=O)CCCOc3ccc(Cl)cc3)cc2)no1`, for which the AC50 under setting [1] is 28.2 µM [falling, single point]. Same read-out and setting: under `Cc1ccc(-n2c(C)cc(/C([O-])=C(/C(=S)Nc3ccc(F)c(Cl)c3)[n+]3ccccc3)c2C)cc1` stands 6.51 µM [falling, partial curve]. On the same count and under the same terms, with `N=c1n(CCc2ccccc2)c2ccccc2n1Cc1ccccc1F` the figure was 20.6 µM [falling, single point]; with `O=C(CN1C(=O)NC2(CCOc3ccccc32)C1=O)c1ccc[nH]1` (stereo unspecified), 20.6 µM [rising, single point].

What is called AC50 is the concentration at which the activity in the assay is half-maximal.
